{"sequences": {"note": "The chains behind the UniProt entries cited, without tags or fusion partners. Where a name states a change or a piece, a line headed by the entry shows the natural chain unless it says otherwise.", "UniProt P51450": "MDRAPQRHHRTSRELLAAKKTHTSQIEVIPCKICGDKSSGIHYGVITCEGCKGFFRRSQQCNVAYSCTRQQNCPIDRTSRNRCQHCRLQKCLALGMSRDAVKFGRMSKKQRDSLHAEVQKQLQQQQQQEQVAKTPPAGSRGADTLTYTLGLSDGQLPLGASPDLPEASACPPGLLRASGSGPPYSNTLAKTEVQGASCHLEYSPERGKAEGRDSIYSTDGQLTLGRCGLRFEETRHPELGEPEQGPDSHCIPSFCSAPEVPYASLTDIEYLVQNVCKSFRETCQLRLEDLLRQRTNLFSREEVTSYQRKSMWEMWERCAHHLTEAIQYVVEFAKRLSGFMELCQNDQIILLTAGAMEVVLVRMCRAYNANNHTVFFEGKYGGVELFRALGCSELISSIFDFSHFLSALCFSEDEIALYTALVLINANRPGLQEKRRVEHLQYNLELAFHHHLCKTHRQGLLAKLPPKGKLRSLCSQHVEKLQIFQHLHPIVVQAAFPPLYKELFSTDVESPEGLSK"}, "source": "PubChem BioAssay AID2551", "about": "(National Center for Advancing Translational Sciences (NCATS), 2010)", "note": "The campaign covered roughly 310,000 compounds. About 17,000 (5.5%) were called active. The shares of active, inactive and inconclusive entries below differ from those in the screen. The call rests on the fitted dose curve; in most records, active means well fitted inhibition curve with a large enough effect; inconclusive means small, poorly fitted or top-dose-only effect, or effect the other way; inactive means no such curve, though single readings can be large or run the other way. Potencies of inconclusive entries are doubtful fits and often do not repeat. Potency means the concentration at half of the fitted maximal effect."}
{"target": "Nuclear receptor ROR-gamma (Mus musculus) (UniProt P51450)", "test": "qHTS for inhibitors of ROR gamma transcriptional activity; further: nearly all actives have a fitted effect of over 60% in size", "settings": "Drosophila S2 Gal4-RORgamma UAS-luciferase reporter, 20 h; series mostly up to 53.6 µM", "how_it_was_run": "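Schneider cells (Drosophila), stable Gal4 DBD–ROR gamma + UAS-luc; 1 hr cmpd preincubation; Cu2+ induction 700 uM final; 20 hr ambient; luminescence.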"}
{"smiles": "NC(=O)N=Nc1c2[nH]c3ccccc3nc-2c2ccccc12", "Potency": "inconclusive: 2 µM [inhibitor, full curve]"}
{"smiles": "CCN(C(=O)COc1ccc(C(=O)c2ccccc2)cc1)c1ccccc1", "Potency": "inconclusive: 35.5 µM [activator, single point]"}
{"smiles": "CCCc1n[nH]c2c1/C(=N/O)CC(c1ccccc1)C2", "note": "(stereo not given)", "Potency": "inconclusive: 1.78 µM [activator, full curve]"}
{"smiles": "Cc1cc(C)nc(SCC2COc3ccccc3O2)n1", "note": "(stereo not given)", "Potency": "inconclusive: 7.08 µM [activator, partial curve]"}
{"smiles": "S=c1[nH]c2cc(Br)cnc2[nH]1", "Potency": "inactive"}
{"smiles": "CCN1CCN(C(c2cccs2)C(C)NC(=S)Nc2cc(C)ccc2C)CC1", "note": "(stereo not given)", "Potency": "inconclusive: 15.8 µM [inhibitor, single point]"}
{"smiles": "O=C(N/N=C/c1cccnc1)c1ccc(O)cc1", "Potency": "inconclusive: 17.8 µM [inhibitor, partial curve, poor fit]"}
{"smiles": "Fc1ccc(-c2ncc3ccccn23)cc1", "Potency": "inactive"}
{"smiles": "CCOC(=O)C1=C(O)CSC1=Nc1ccccc1", "Potency": "inconclusive: 35.5 µM [inhibitor, single point]"}
{"smiles": "O=C(CSc1ncn(-c2ccccc2)n1)N1CCc2ccccc21", "Potency": "inconclusive: 35.5 µM [activator, single point]"}
{"smiles": "Cc1c(O)c(CN2CCCCC2)cc2c1oc(=O)c1ccccc12", "Potency": "inactive"}
{"smiles": "COC(=O)c1cc2c(s1)-c1ccc(OC)cc1CC2", "Potency": "inactive"}
{"smiles": "CCOc1ccc(C(C(=O)NC2CCCC2)N(C(=O)c2snc(C(N)=O)c2N)C2CCCC2)cc1", "note": "(stereo not given)", "Potency": "inactive"}
{"smiles": "O=C(c1ccc(F)c(S(=O)(=O)N2CCOCC2)c1)N1CCc2ccccc21", "Potency": "inconclusive: 14.1 µM [activator, single point]"}
{"smiles": "Cc1ccc2cc(/C=N/NC(=O)c3ccc(F)cc3)c(Cl)nc2c1", "Potency": "inactive"}
{"smiles": "CSc1ccc(C(c2c(C)[nH][nH]c2=O)c2c(C)[nH][nH]c2=O)cc1", "Potency": "inconclusive: 1.12 µM [inhibitor, full curve, poor fit]"}
{"smiles": "CCOC(=O)c1sc(NN=C(C(=O)OC)C(=O)OC)c(C(=O)OCC)c1C", "Potency": "inconclusive: 35.5 µM [inhibitor, single point]"}
{"smiles": "COc1ccc(-c2cc(N3C(=O)Nc4ccccc4N3O)n[nH]2)cc1OC", "Potency": "inconclusive: 5.01 µM [activator, single point]"}
{"smiles": "Clc1ccc(-n2nnnc2SCc2cn3ccccc3n2)cc1", "Potency": "inconclusive: 20 µM [inhibitor, single point]"}
{"smiles": "O=C1CSC(c2cccc([N+](=O)[O-])c2)N1CCc1ccccc1", "note": "(stereo not given)", "Potency": "inactive"}
{"smiles": "Fc1ccc(CNC(=S)Nc2ccc(Cl)cc2)cc1", "Potency": "active: 7.08 µM"}
{"smiles": "S=c1[nH]nc(C2CCCCC2)n1/N=C/c1cccs1", "Potency": "active: 14.1 µM"}
{"smiles": "CCn1c(-c2cccc(S(=O)(=O)N3CCCC3)c2)n[nH]c1=S", "Potency": "inconclusive: 7.94 µM [inhibitor, partial curve, poor fit]"}
{"smiles": "COc1cc(NC(=S)NCc2ccco2)cc(OC)c1", "Potency": "active: 5.62 µM"}
{"smiles": "Cc1ccccc1NC(=O)COC(=O)c1ccc(CSc2ccc(Cl)cc2)cc1", "Potency": "inconclusive: 11.2 µM [inhibitor, single point]"}
{"smiles": "COc1ccc(/C=C/c2ccc3cccc(O)c3n2)c(OC)c1OC", "Potency": "active: 3.16 µM"}
{"smiles": "O=C(Oc1ccc2ccc(O)cc2c1)c1ccccc1Cl", "Potency": "inconclusive: 2 µM [inhibitor, partial curve]"}
{"smiles": "O=C(Nc1ccc2c(c1)OCO2)c1cc(C2CC2)on1", "Potency": "inconclusive: 1.41 µM [activator, single point]"}
{"smiles": "COc1ccc(N(C(=O)c2snc(C(N)=O)c2N)C(C(=O)NC2CCCCC2)c2ccc(C)o2)c(OC)c1", "note": "(stereo not given)", "Potency": "inactive"}
{"smiles": "NC(=O)Cc1ccc(Nc2nnc(-c3ccccc3)c3ccccc23)cc1", "Potency": "inconclusive: 35.5 µM [inhibitor, single point]"}
{"smiles": "Cc1ccc(NC(=O)c2[nH]cnc2C(=O)NN)cc1", "Potency": "inconclusive: 12.6 µM [inhibitor, partial curve, poor fit]"}
{"smiles": "Cc1cc(/C=N/n2c(COc3ccccc3)nc3ccccc3c2=O)c(O)c([N+](=O)[O-])c1", "Potency": "inconclusive: 20 µM [inhibitor, single point]"}
{"smiles": "COc1ccc(/C=C/C(=O)OCc2cc(=O)n3c(n2)sc2ccccc23)cc1", "Potency": "inconclusive: 5.62 µM [inhibitor, single point]"}
{"smiles": "CN1CCCC1CCNc1ccc2oc3ccccc3c(=O)c2c1", "note": "(stereo not given)", "Potency": "active: 8.91 µM"}
{"smiles": "O=C(NC1CCCCCC1)C1CCC(CNS(=O)(=O)c2ccc(Br)s2)CC1", "note": "(stereo not given)", "Potency": "inconclusive: 35.5 µM [inhibitor, single point]"}
{"smiles": "CC1(C)OC(C)(C)/C(=C/Nc2ccccc2)C1=O", "Potency": "inactive"}
{"smiles": "Cc1ccc(S(=O)(=O)N2CCOCC2)cc1NC(=O)CN(C)C1CCS(=O)(=O)C1", "note": "(stereo not given)", "Potency": "inconclusive: 25.1 µM [activator, single point]"}
{"smiles": "Cc1ccc(CN2CCN(/N=C/c3cccnc3)CC2)c(C)c1", "Potency": "inconclusive: 20 µM [activator, single point]"}
{"smiles": "CCOc1ccc(NC(=O)c2sccc2-n2cccc2)cc1", "Potency": "inactive"}
{"smiles": "O=C(O)CCCCNS(=O)(=O)/C=C/c1ccccc1", "Potency": "inconclusive: 22.4 µM [inhibitor, single point]"}
{"smiles": "O=C(Nc1nc2n(n1)C(c1ccc(Cl)cc1)CC(c1ccc(Cl)cc1)N2)c1ccco1", "note": "(stereo not given)", "Potency": "active: 3.16 µM"}
{"smiles": "O=C(/C=C/Nc1cccc([N+](=O)[O-])c1)c1cccs1", "Potency": "inconclusive: 0.1 µM [activator, full curve, poor fit]"}
{"smiles": "CC(=O)Nc1ccc(S(=O)(=O)NC(C(=O)O)C2=CCC=CC2)cc1", "note": "(stereo not given)", "Potency": "inactive"}
{"smiles": "O=C(NCc1ccco1)C(=O)NCC1OCCN1S(=O)(=O)c1ccccc1", "note": "(stereo not given)", "Potency": "inactive"}
{"smiles": "O=C(OCC(=O)N1CCCC1)c1cccc(Br)c1", "Potency": "inactive"}
{"smiles": "Cc1cc(C)cc(NC(=S)N2CCN(c3ccccn3)CC2)c1", "Potency": "active: 15.8 µM"}
{"smiles": "COC(/C=C/Nc1ccc(Cl)cc1)=C(C#N)C#N", "Potency": "inconclusive: 0.631 µM [inhibitor, full curve]"}
{"smiles": "CC1CCC(NC(=O)CC(C)(C)Cc2nc3ccccc3c(=O)[nH]2)CC1", "note": "(stereo not given)", "Potency": "inconclusive: 0.282 µM [activator, single point]"}
{"smiles": "CC(C)COc1ccc(C(=O)Nc2ccc(SC(F)F)cc2)cc1", "Potency": "inconclusive: 3.16 µM [activator, partial curve]"}
{"smiles": "CCOc1ccc(S(=O)(=O)c2c(C(=O)c3ccc(C)cc3)cnc3cc4c(cc23)OCCO4)cc1", "Potency": "inactive"}
{"smiles": "CC(=O)/C(N=Nc1c(C)n(C)n(-c2ccccc2)c1=O)=C(\\C)O", "Potency": "inactive"}
{"smiles": "COc1ccc(-c2csc3ncnc(N4CCN(c5cccc(C)c5C)CC4)c23)cc1", "Potency": "inactive"}
{"smiles": "S=C(NCCc1ccccc1)N1CCc2ccccc2C1", "Potency": "inconclusive: 15.8 µM [inhibitor, single point]"}
{"smiles": "O=C(c1cc(COc2ccc(F)c(F)c2)on1)N1CCN(C2CCCCC2)C(=O)C1", "Potency": "inconclusive: 35.5 µM [activator, single point]"}
{"smiles": "COC(=O)c1ccc(C(=O)NC2CCCN(Cc3ccc(Cl)cc3)C2)nc1", "note": "(stereo not given)", "Potency": "inconclusive: 22.4 µM [inhibitor, single point]"}
{"smiles": "Cc1ccc(SCC(=O)NC(=O)NCc2ccccc2)c(C)c1", "Potency": "inactive"}
{"smiles": "C=C(C)CN(CC)C(=O)CCc1nnc(CCCc2ccccc2)o1", "Potency": "inconclusive: 11.2 µM [activator, single point]"}
{"smiles": "CCCCc1ccc(S(=O)(=O)N2CCN(C(=O)c3ccco3)CC2)cc1", "Potency": "inconclusive: 20 µM [activator, single point]"}
{"smiles": "COc1ccc(C2N=C(c3ccccc3)NC(c3ccccc3)=N2)cc1", "Potency": "inconclusive: 10 µM [activator, partial curve]"}
{"smiles": "Cc1cc(/C=N/n2c(COc3ccccc3C)nc3ccccc3c2=O)c(O)c([N+](=O)[O-])c1", "Potency": "active: 14.1 µM"}
{"smiles": "CC(C)[C@@H]1CC[C@@H](C)C[C@H]1OC(=O)C[n+]1cc(-c2ccc(Cl)cc2)n2c1CCCCC2", "Potency": "inconclusive: 25.1 µM [inhibitor, single point]"}
{"smiles": "O=C(CSc1ccccn1)N1CCN(c2ncc(C(F)(F)F)cc2Cl)CC1", "Potency": "inconclusive: 15.8 µM [activator, single point]"}
{"smiles": "c1cnc(-c2nnc3n2CCCCC3)cn1", "Potency": "inactive"}
{"smiles": "Fc1ccc(-c2nnc(Cc3nnc(-c4ccc(F)cc4)o3)o2)cc1", "Potency": "active: 5.01 µM"}
{"smiles": "CC(C)(C)OC(=O)CNC(=O)c1[nH]cnc1C(=O)NCC(=O)OCc1ccccc1", "Potency": "inconclusive: 22.4 µM [inhibitor, single point]"}
{"smiles": "C/C(=N\\NC(=O)c1ccoc1C)c1ccc(Cl)s1", "Potency": "active: 11.2 µM"}
{"smiles": "CC(=O)c1cc(NC(=O)c2ccc(C)cc2)c(=O)oc1/C=C/N(C)C", "Potency": "inconclusive: 5.62 µM [activator, single point]"}
{"smiles": "Cc1nc(NC(N)=S)sc1C(=O)Nc1ccccc1", "Potency": "active: 11.2 µM"}
{"smiles": "O=c1[nH]c2ccccc2nc1Cc1ccccc1", "Potency": "inactive"}
{"smiles": "CCC1=NN(C(=O)Cc2ccc(OC)cc2)C(O)(C(F)(F)F)C1", "note": "(stereo not given)", "Potency": "active: 11.2 µM"}
{"smiles": "CC(C)Oc1ccccc1OCCCCn1cnc2ccccc2c1=O", "Potency": "inconclusive: 35.5 µM [activator, single point]"}
{"smiles": "S=c1[nH]nc(-c2ccccc2Br)n1Cc1ccccc1", "Potency": "active: 4.47 µM"}
{"smiles": "O=C(CCN1CCC(c2cccs2)=N1)c1cccs1", "Potency": "inconclusive: 5.62 µM [activator, single point]"}
{"smiles": "Cc1cccc(OCC(=O)NC(=S)NNC(=O)c2ccncc2)c1", "Potency": "inconclusive: 14.1 µM [inhibitor, partial curve, poor fit]"}
{"smiles": "COc1ccc(NC(=O)c2cccc(N3C(=O)C4C5CCC(C5)C4C3=O)c2)cc1", "note": "(stereo not given)", "Potency": "inactive"}
